Data as given in PubChem BioAssay AID1159544 (Gurdon Institute, 2015)
The deposit covers 41 reagents; below is an unselected part of those that have a named target and a result. In the full data, 13 (32%) are marked active. 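Values are raw well means without normalisation; calls set replicate averages against a luciferase siRNA control; from a single screening run.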 A number with no mark means an inactive call. Repeated entries: replicate wells of the same siRNA.

Screen: 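How each human E2 shapes foci build-up and removal after double-strand breaks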 (primary screen)
Cells: human U2OS osteosarcoma cells
Knock-down reagent: siRNA against human genes, about 60 nM siRNA
Time to read-out: about 3 days from transfection to irradiation, then fixed 30 min to 24 h later
Treatment: ionising radiation, 2 Gy; fixed 30 min, 2 h, 8 h or 24 h later; untreated plates as reference
Detection: 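Confocal images of DAPI-defined nuclei stained with FK2 against conjugated ubiquitin; foci detected automatically, counted per nucleus and averaged per well as raw means without normalisation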
Scale: FK2 foci per cell, 30 min post-IR: higher = more ubiquitin foci early after irradiation; FK2 foci per cell, unirradiated: higher = more ubiquitin foci without irradiation; FK2 foci per cell, 2 h post-IR: higher = more ubiquitin foci 2 h after irradiation; FK2 foci per cell, 24 h post-IR: higher = more ubiquitin foci persisting a day later
Call rule: 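a knock-down counts as active if its averaged foci count at 30 min post-irradiation lies over 40% above or below the luciferase siRNA average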

no.	gene knocked down	FK2 foci per cell, 30 min post-IR	FK2 foci per cell, unirradiated	FK2 foci per cell, 2 h post-IR	FK2 foci per cell, 24 h post-IR
1	UBE2Z (ubiquitin conjugating enzyme E2 Z)	9.81	4.03	6.98	5.27
2	UBE2Z (ubiquitin conjugating enzyme E2 Z)	9.39	4.43	6.61	5.36
3	BIRC6 (baculoviral IAP repeat containing 6)	11.3	4.12	7.62	3.67
4	BIRC6 (baculoviral IAP repeat containing 6)	11.9	4.2	7.38	3.79
5	UBE2D1 (ubiquitin conjugating enzyme E2 D1)	14	4.84	8.37	3.91
6	UBE2D1 (ubiquitin conjugating enzyme E2 D1)	11.9	4.36	8.49	3.53
7	TSG101 (tumor susceptibility 101)	10.4	4.96	8.49	3.96
8	TSG101 (tumor susceptibility 101)	12	4.95	9.85	3.4
9	UBE2L6 (ubiquitin conjugating enzyme E2 L6)	3.37 (active)	1	2.05	0.333
10	UBE2L6 (ubiquitin conjugating enzyme E2 L6)	3.04 (active)	0.955	1.63	0.386
11	UBE2NL (ubiquitin conjugating enzyme E2 N like (gene/pseudogene))	10.9	5.02	7.81	3.9
12	UBE2NL (ubiquitin conjugating enzyme E2 N like (gene/pseudogene))	10.8	4.72	7.07	3.62
13	UBE2D3 (ubiquitin conjugating enzyme E2 D3)	2.25 (active)	1.39	1.26	0.854
14	UBE2D3 (ubiquitin conjugating enzyme E2 D3)	1.84 (active)	2.05	1.27	1.2
15	UBE2C (ubiquitin conjugating enzyme E2 C)	12.3	4.41	8.24	3.04
16	UBE2C (ubiquitin conjugating enzyme E2 C)	11.6	4.38	8.32	2.82
17	UBE2H (ubiquitin conjugating enzyme E2 H)	13.1	5.36	8.71	4.97
18	UBE2H (ubiquitin conjugating enzyme E2 H)	16.1	5.56	8.8	4.74
19	UBE2B (ubiquitin conjugating enzyme E2 B)	15.2	4.58	10.3	2.92
20	UBE2B (ubiquitin conjugating enzyme E2 B)	15	4.78	10	3.03
21	UBE2Q1 (ubiquitin conjugating enzyme E2 Q1)	13	6.36	9.76	6.58
22	UBE2Q1 (ubiquitin conjugating enzyme E2 Q1)	12.3	6.63	9.78	6.51
23	UBE2Q2 (ubiquitin conjugating enzyme E2 Q2)	5.52 (active)	2.05	3.25	2.25
24	UBE2Q2 (ubiquitin conjugating enzyme E2 Q2)	4.48 (active)	1.95	3.55	2.23

Laid out differently: results already given
UBE2D3 (ubiquitin conjugating enzyme E2 D3) | FK2 foci per cell, 30 min post-IR = 2.25 (active); FK2 foci per cell, unirradiated = 1.39; FK2 foci per cell, 2 h post-IR = 1.26; FK2 foci per cell, 24 h post-IR = 0.854
UBE2D3 (ubiquitin conjugating enzyme E2 D3) | FK2 foci per cell, 30 min post-IR = 1.84 (active); FK2 foci per cell, unirradiated = 2.05; FK2 foci per cell, 2 h post-IR = 1.27; FK2 foci per cell, 24 h post-IR = 1.2
UBE2C (ubiquitin conjugating enzyme E2 C) | FK2 foci per cell, 30 min post-IR = 12.3; FK2 foci per cell, unirradiated = 4.41; FK2 foci per cell, 2 h post-IR = 8.24; FK2 foci per cell, 24 h post-IR = 3.04
